Assay results: the supplement of paper PMC4604168 (melanoma cell lines)
The other results are listed elsewhere or left out. Repeats are few or missing, and single values can be far off.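 Cells were imaged in 1,536-well plates, and nuclei stained with an antibody against cleaved PARP were counted against all DNA-stained nuclei to give the apoptosis fraction. Screening doses were chosen to leave most cells alive, and resting and induced cleaved-PARP levels differ strongly between cell lines.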

Experiments:
Experiment in all cases: cleaved PARP positive nuclei fraction relative to DMSO control; melanoma cells; higher = more apoptosis
Details in all cases: library dose: low library concentration; 72 h
501Mel = test system: 501Mel
A101D = test system: A101D
A2058 = test system: A2058
A375 = test system: A375
C32 = test system: C32
CBRC008 = test system: CBRC008 (line from a melanoma biopsy)
CBRC014 = test system: CBRC014 (line from a melanoma biopsy)
CBRC016 = test system: CBRC016 (line from a melanoma biopsy)
CBRC017 = test system: CBRC017 (line from a melanoma biopsy)

Row | SMILES | cleaved PARP positive nuclei fraction (501Mel) | cleaved PARP positive nuclei fraction (A101D) | cleaved PARP positive nuclei fraction (A2058) | cleaved PARP positive nuclei fraction (A375) | cleaved PARP positive nuclei fraction (C32) | cleaved PARP positive nuclei fraction (CBRC008) | cleaved PARP positive nuclei fraction (CBRC014) | cleaved PARP positive nuclei fraction (CBRC016) | cleaved PARP positive nuclei fraction (CBRC017)
1 | CCCCCCCCc1ccc(CCC(N)(CO)CO)cc1 [fingolimod] + COc1ccc(Cl)c(Nc2nc3ccccc3nc2NS(=O)(=O)c2cccc(NC(=O)C(C)(C)N)c2)c1 [XL147] (first compound 2 µM, partner dose 0.8 µM) | 178% | 49.7% | 61.3% | 412% | 75.6% | 95.5% | 105% | 93.5% | 108%
2 | CCCCCCCCc1ccc(CCC(N)(CO)CO)cc1 [fingolimod] + Nc1nc(F)nc2c1ncn2[C@@H]1O[C@H](CO)[C@@H](O)[C@@H]1O [fludarabine] (first compound 2 µM, partner dose 0.2 µM) | 9090% | 105% | 141% | 1960% | 154% | 50% | 104% | 32.6% | 142%
3 | NC1(c2ccc(-c3nc4ccn5c(=O)[nH]nc5c4cc3-c3ccccc3)cc2)CCC1 + C=CCNC1=C2C[C@@H](C)C[C@H](OC)[C@H](O)[C@@H](C)/C=C(\C)[C@H](OC(N)=O)[C@@H](OC)/C=C\C=C(/C)C(=O)NC(=CC1=O)C2=O [Tanespimycin] (first compound 0.4 µM, partner dose 0.002 µM) | 82.1% | 464% | 142% | 160% | 150% | 21.5% | 81.1% | 32% | 79.8%
4 | NC1(c2ccc(-c3nc4ccn5c(=O)[nH]nc5c4cc3-c3ccccc3)cc2)CCC1 + O=C(O)[C@@H]1[O][Sb](=[O])([O][Sb]2(=[O])[O][C@H]([C@H](O)CO)[C@H](O)[C@H](C(=O)O)[O]2)[O][C@H]([C@H](O)CO)[C@@H]1O [stibogluconate] (first compound 0.4 µM, partner dose 2 µM) | 52.9% | 122% | 66.4% | 110% | 69.6% | 44.1% | 75.4% | 26% | 92.5%
5 | CN(c1ncccc1CNc1nc(Nc2ccc3c(c2)CC(=O)N3)ncc1C(F)(F)F)S(C)(=O)=O + Cc1nc(Nc2ncc(C(=O)Nc3c(C)cccc3Cl)s2)cc(N2CCN(CCO)CC2)n1 [dasatanib] (first compound 0.08 µM, partner dose 0.004 µM) | 162% | 121% | 261% | 248% | 82.4% | 25.9% | 116% | 192% | 111%
6 | C[C@]1(O)C[C@@H](c2nc(-c3ccc4ccc(-c5ccccc5)nc4c3)c3c(N)nccn32)C1 + C#Cc1cccc(Nc2ncnc3cc(OCCOC)c(OCCOC)cc23)c1 [erlotinib] (first compound 0.4 µM, partner dose 0.8 µM) | 111% | 201% | 101% | 618% | 72.4% | 170% | 116% | 129% | 90.3%
7 | CC1(C)CCC(c2ccc(Cl)cc2)=C(CN2CCN(c3ccc(C(=O)NS(=O)(=O)c4ccc(N[C@H](CCN5CCOCC5)CSc5ccccc5)c(S(=O)(=O)C(F)(F)F)c4)cc3)CC2)C1 + C[C@]1(O)C[C@@H](c2nc(-c3ccc4ccc(-c5ccccc5)nc4c3)c3c(N)nccn32)C1 [OSI906] (first compound 0.4 µM, partner dose 0.4 µM) | 445% | 89.2% | 225% | 892% | 652% | 651% | 1080% | 684% | 477%
8 | NC1(c2ccc(-c3nc4ccn5c(=O)[nH]nc5c4cc3-c3ccccc3)cc2)CCC1 + COc1ccc(Cl)c(Nc2nc3ccccc3nc2NS(=O)(=O)c2cccc(NC(=O)C(C)(C)N)c2)c1 [XL147] (first compound 0.4 µM, partner dose 0.8 µM) | 78% | 159% | 73.1% | 223% | 44.1% | 161% | 111% | 160% | 116%
9 | COc1ccc(C2=N[C@@H](c3ccc(Cl)cc3)[C@@H](c3ccc(Cl)cc3)N2C(=O)N2CCNC(=O)C2)c(OC(C)C)c1 [Nutlin-3] + Cc1nc(Nc2ncc(C(=O)Nc3c(C)cccc3Cl)s2)cc(N2CCN(CCO)CC2)n1 [dasatanib] (first compound 0.1 µM, partner dose 0.004 µM) | 162% | 188% | 55.8% | 130% | 147% | 44.5% | 101% | 79% | 156%
10 | CN(c1ncccc1CNc1nc(Nc2ccc3c(c2)CC(=O)N3)ncc1C(F)(F)F)S(C)(=O)=O + Cn1nnc2c(C(N)=O)ncn2c1=O [temozolomide] (first compound 0.08 µM, partner dose 2 µM) | 133% | 94.7% | 138% | 87.4% | 90.3% | 101% | 124% | 92.9% | 91.1%
